Record: PubChem BioAssay AID1259284 (Sanger Institute, 2017)
Screen: 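siRNA screen across the kinome seeking partners for BYL719, cetuximab or trametinib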 (primary screen). System: SW48 human colorectal cancer cells. Reagent: siRNA pool against human genes. Treatment: anchor drug BYL719 at 1 µM, cetuximab at 5 µg/ml or trametinib at 10 nM, or DMSO vehicle alone. Measurement: 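Viability scaled to non-targeting control pool, robust z-score from controls, and synergy scores for each drug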. Scale: robust z-score, no drug: higher = more cells survive knock-down. Hit rule: 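Called essential when the robust z-score of viability without drug falls below -3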. Meaning of the calls: active = essential without drug; inactive = no change without drug.
In all, the deposit lists 794 reagents; below is a part drawn at random. 16 of all reagents (2%) were called active. 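Calls concern knock-down without drug only; drug synergy was judged apart, with scores above 0.15 taken as synergy.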 Entries without a mark were called inactive. Further read-outs or replicates are left out here. The record does not give: the amount of reagent, the time to read-out.

"robust z-score, no drug",gene symbol
0.426,MAPK15
0.426,EPHB2
0.426,CDK11A
0.426,PIK3R3
0.426,NRAS
0.426,EPHB6
0.299,DCLK1
0.426,DCLK2
0.426,CDK2
0.426,CSNK2A2
-1.48,MYLK2
0.426,COMMD3
0.118,PBK
0.426,NME5
0.426,LIMK1
-3.18 (active),MAP4K5
0.426,ROR1
0.426,ADPGK
0.426,CUL1
0.426,ALPK1
0.426,PRKD1
0.426,DAPK1
-2.28,MED12
0.426,PRPS1L1
0.426,MAP2K2
-0.879,PTK7
0.426,TAF1L
0.426,EPHA7
-2.57,SRMS
0.426,CILK1
-0.937,MST1R
0.226,NME3
0.426,MYH10
0.426,PI4KB
0.426,DLG2
0.426,HUS1
0.426,MAPKAPK5
0.426,BCOR
-2.43,PTK2B
0.426,PRKAG1
0.426,IGF1R
0.426,CLK3
0.25,CDK4
0.426,MAGI1
-0.702,TTBK2
0.426,GAK
0.426,MAP3K21
-0.506,PRKCE
-2.06,MPP3
0.426,DGKQ

Copied from above (2 entries):
"robust z-score, no drug",gene symbol
0.426,IGF1R
0.426,CLK3
